{
  "sequences": {"note": "Amino acid sequences for entries named in this document (tags omitted). Residues count along the entry.", "UniProt Q07820, 172-327": "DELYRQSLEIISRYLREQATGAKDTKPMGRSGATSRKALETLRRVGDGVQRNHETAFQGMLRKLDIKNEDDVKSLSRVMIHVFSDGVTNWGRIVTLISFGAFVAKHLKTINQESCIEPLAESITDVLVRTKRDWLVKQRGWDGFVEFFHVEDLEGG", "UniProt Q07817, 1-209": "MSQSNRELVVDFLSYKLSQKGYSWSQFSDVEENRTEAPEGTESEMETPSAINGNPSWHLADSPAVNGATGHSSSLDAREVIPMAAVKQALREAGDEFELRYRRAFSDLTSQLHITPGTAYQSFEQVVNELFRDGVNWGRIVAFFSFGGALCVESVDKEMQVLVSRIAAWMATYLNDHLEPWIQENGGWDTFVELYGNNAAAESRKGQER"},
  "source": "patent US11286299B2",
  "about": "“Peptides selective for Bcl-2 family proteins” (Massachusetts Institute of Technology, priority 2018, dated 2022)",
  "key": {"Mcl-1 [1]": {"molecular_target": "T1, Mcl-1 (Homo sapiens, UniProt Q07820)", "experiment": "Competition fluorescence polarization (anisotropy) binding assay", "set-up": "Mcl-1 residues 172-327; made in house; host or cells: E. coli", "settings": "read-out: Ki, Mcl-1; Table X2; 50 nM protein, 25 nM fluoresceinated Bim BH3; SD of three replicates", "experimental": "(§1) Fluorescence polarization competition binding assay Competition fluorescence polarization experiments were performed as described by Jenson et al. […]. Experiments were performed in triplicate, using the same protein and peptide preparations, and data were fit as described by Foight et al. (20) to a complete competitive binding model (47)."}, "Bcl-xL [2]": {"molecular_target": "T2, Bcl-xL (Homo sapiens, UniProt Q07817)", "experiment": "Competition fluorescence polarization (anisotropy) binding assay", "set-up": "human Bcl-xL residues 1-209; made in house; host or cells: E. coli", "settings": "read-out: Ki, Bcl-xL; Table X2; 50 nM protein, 25 nM fluoresceinated Bim BH3; SD of three replicates", "experimental": "as §1"}, "Mcl-1 [3]": {"molecular_target": "T1, Mcl-1", "experiment": "Yeast cell-surface display binding (FACS titration)", "set-up": "Mcl-1 residues 172-327; made in house; host or cells: E. coli", "settings": "read-out: reported affinity, Mcl-1; Table X3, this study; Bfl-1 specific peptides, cell-surface measurement, highest concentration tested 1000 nM"}, "Bcl-xL [4]": {"molecular_target": "T2, Bcl-xL", "experiment": "Yeast cell-surface display binding (FACS titration)", "set-up": "human Bcl-xL residues 1-209; made in house; host or cells: E. coli", "settings": "read-out: reported affinity, Bcl-xL; Table X3, this study; Bfl-1 specific peptides, cell-surface measurement, highest concentration tested 1000 nM"}},
  "note": "At least one structure is not confirmed: it was looked up by name or label, or the drawing left a doubt.",
  "data": [
    {"substance": "Ac-RRVVQIAAGLRRAGDQLEKYGER-NH2 [srt.F10]", "values": [
      {"measurement": "Ki", "setting": "Mcl-1 [1]", "value": "> 4000", "unit": "nM"},
      {"measurement": "Ki", "setting": "Bcl-xL [2]", "value": "> 4000", "unit": "nM"},
      {"measurement": "Kd", "setting": "Mcl-1 [3]", "value": "> 1000", "unit": "nM"},
      {"measurement": "Kd", "setting": "Bcl-xL [4]", "value": "> 1000", "unit": "nM"}
    ]}
  ]
}
